# In PMC12431657, “Discovery and mechanistic insights of dibenzoylmethane as a broad spectrum inhibitor of coronavirus” (PLOS Pathogens, 2025):
# Structures can show the parent of a compound that is named as a salt. Where two headings read alike, the source gives them in different places. The campaign covered roughly 3,300 compounds. About 60 (2%) showed an effect of 50% or more. This is one part of the list.
# Test system: HCoV-OC43
# Design: species or system RD; HTS, protection from HCoV-OC43 induced cell death, luminescent cell viability (CellCounting-Lite 2.0), inhibition rate
# Conditions: 24 h post infection, 1 h compound pre-incubation, 10 µM, inhibitor
SMILES,OC43 Inhibition rate [%],"OC43 Inhibition rate (OC43 Inhibition rate, 24 h) [%]"
C[C@@H]1O[C@@H](OCCC(=O)O)[C@H](O)C[C@H]1O [Ascr#5],0.5,–
CSCCC(=O)O [3-(Methylthio)propionic acid],-2,–
CC(C)=CC(=O)O[C@H]1Cc2cc3ccc(=O)oc3cc2OC1(C)C [Decursin],-0.3,–
CC=C1[C@H](O[C@@H]2O[C@H](CO)[C@@H](O)[C@H](O)[C@H]2O)OC=C(C(=O)OC)[C@H]1CC(=O)OC[C@H]1O[C@@H](OCCc2ccc(O)cc2)[C@H](O)[C@@H](O)[C@@H]1O (stereo in doubt) [Specnuezhenide],1,–
CCOCC(=O)O [Ethoxyacetic acid],-3.2,–
CCCCCCCC/C=C\CCCCCCCCCCCCCC(=O)O [Nervonic acid],-2.1,–
O=c1c(O)c(-c2ccc(O)c(O)c2)oc2cc(O[C@@H]3O[C@H](CO)[C@@H](O)[C@H](O)[C@H]3O)c(O)c(O)c12 [Quercetagitrin],1.8,–
NCC(=O)O [Glycine],6.5,–
COC(=O)C(O)CC(C)C (centres unmarked) [Methyl 2-hydroxy-4-methylvalerate],-0.2,–
CC/C=C\CCO [cis-3-Hexen-1-ol],-0.4,–
CC(C)=CCC[C@](C)(O[C@@H]1O[C@H](CO)[C@@H](O)[C@H](O)[C@H]1O)[C@H]1CC[C@]2(C)[C@@H]1[C@H](O)C[C@@H]1[C@@]3(C)CC[C@H](O[C@@H]4O[C@H](CO)[C@@H](O)[C@H](O)[C@H]4O)C(C)(C)[C@@H]3CC[C@]12C [Ginsenoside F2],-0.9,–
O=C1OC[C@H]2OC(O)[C@H](O)[C@@H](O)[C@@H]2OC(=O)c2cc(O)c(O)c(O)c2-c2c(O)c(O)c3oc(=O)c4c(c(O)c(O)c5oc(=O)c2c3c54)-c2c1cc(O)c(O)c2O (mixture of isomers) [Punicalin],-0.6,–
CCc1ccc(O)cc1O [4-Ethylresorcinol],-0.1,–
CCCCCCCCCCCCCCCC(=O)NCCO [Palmitoylethanolamide],-0.2,–
CC1(C)CC[C@]2(C(=O)O)CC[C@]3(C)C(=CC[C@@H]4[C@@]5(C)CC[C@H](O[C@@H]6O[C@H](C(=O)O)[C@@H](O)[C@H](O[C@@H]7OC[C@@H](O)[C@H](O)[C@H]7O[C@@H]7O[C@H](CO)[C@@H](O)[C@H](O)[C@H]7O)[C@H]6O)C(C)(C)[C@@H]5CC[C@]43C)[C@@H]2C1 [Oleanolic acid-3-O-glucosyl(1-2)xylyl(1-3)glucosiduronic acid],-0.1,–
C[C@H]1CC[C@]2(NC1)O[C@H]1C[C@H]3[C@@H]4CC[C@H]5C[C@@H](O[C@@H]6O[C@H](CO)[C@H](O[C@@H]7O[C@H](CO)[C@@H](O)[C@H](O[C@@H]8OC[C@@H](O)[C@H](O)[C@H]8O)[C@H]7O[C@@H]7O[C@H](CO)[C@@H](O)[C@H](O)[C@H]7O)[C@H](O)[C@H]6O)CC[C@]5(C)[C@H]4CC[C@]3(C)[C@H]1[C@@H]2C [Tomatine],2,–
CC(C)(S)[C@@H](N)C(=O)O [Penicillamine],-0.5,–
C[C@H](CC[C@@H](O[C@@H]1O[C@H](CO)[C@@H](O)[C@H](O)[C@H]1O[C@@H]1O[C@H](CO)[C@@H](O)[C@H](O)[C@H]1O)C(C)(C)O)[C@H]1CC[C@@]2(C)[C@@H]3CC=C4[C@@H](CC[C@H](O[C@@H]5O[C@H](CO)[C@@H](O)[C@H](O)[C@H]5O)C4(C)C)[C@]3(C)[C@H](O)C[C@]12C [Mogroside III-E],2.2,–
Cc1ncc(C[n+]2csc(CCO)c2C)c(N)n1 [Thiamine monochloride],–,2.4

SMILES,OC43 Inhibition rate [%],"OC43 Inhibition rate (OC43 Inhibition rate, 24 h) [%]"
O=c1cccccc1 [Tropone],-0.5,–
CN1[C@H]2C[C@H](OC(=O)[C@H](CO)c3ccccc3)C[C@@H]1[C@@H](O)C2 [Anisodamine (hydrobromide)],–,-0.1
CC(=O)c1ccc(O)cc1C [4′-Hydroxy-2′-methylacetophenone],2.7,–
COc1cc2c(c(OC)c1OC)-c1c(cc3c(c1OC)OCO3)C[C@H](C)[C@@](C)(O)C2 [Schisandrol B],-0.2,–
"O=C(CO)CO [1,3-Dihydroxyacetone]",0.1,–
C=C(C)[C@@H]1CC[C@]2(C)CC[C@]3(C)[C@H](CC[C@@H]4[C@@]5(C)CCC(=O)C(C)(C)[C@@H]5CC[C@]43C)[C@@H]12 [Lupenone],-1.5,–
Cn1c(=O)c2c(ncn2CC(=O)O)n(C)c1=O [Acefylline],0,–
CC(=O)N[C@@H](CC(=O)O)C(=O)O [N-Acetyl-L-aspartic acid],-0.4,–
"O=C1O[C@H](CO)[C@@H](O)[C@H](O)[C@H]1O [D-(+)-Glucono-1,5-lactone]",-0.8,–
COc1cc2c(cc1O)C[C@H]1c3c(cc(O)c(OC)c3-2)CCN1C [Boldine],-0.3,–
N[C@@H](CCC(=O)N[C@@H](CS)C(=O)O)C(=O)O [Gamma-glutamylcysteine],2,–
OC[C@@H](O)C(O)[C@H](O)CO [D-Arabitol],0.1,–
"O=C1CCCCC1=O [1,2-Cyclohexanedione]",0.8,–
CCCCC(C)CCC(=O)O (centres unmarked) [4-Methyloctanoic acid],-0.5,–
CC(=O)N[C@@H](CCC(N)=O)C(=O)O [Aceglutamide],-0.8,–
COc1cc(O)c2c(=O)c(O)c(-c3ccc(O)c(O)c3)oc2c1 [Rhamnetin],8.3,–
O=C1c2c(O)cc(O)cc2O[C@H](c2ccc(O)cc2)[C@H]1O [Dihydrokaempferol],1.5,–
OC[C@H]1O[C@@H](Oc2cc(O)ccc2/C=C/c2cc(O)cc(O)c2)[C@H](O)[C@@H](O)[C@@H]1O [Oxyresveratrol 2-O-β-D-glucopyranoside],2.1,–
CC(/C=C/C=C(\C)C(=O)O)=C\C=C\C=C(C)\C=C\C=C(/C)C(=O)O [Crocetin],–,5.6
